# Measured values published in the supplement of paper PMC11732987, “Enantioselective OTUD7B fragment discovery through chemoproteomics screening and high-throughput optimisation” (Communications Chemistry, 2025).
# Protein sequences, listed by entry. Tags and fused reporters are not part of them. Lines headed by an entry give the natural chain unless they say otherwise; changes in a name come on top.
# UniProt Q13371: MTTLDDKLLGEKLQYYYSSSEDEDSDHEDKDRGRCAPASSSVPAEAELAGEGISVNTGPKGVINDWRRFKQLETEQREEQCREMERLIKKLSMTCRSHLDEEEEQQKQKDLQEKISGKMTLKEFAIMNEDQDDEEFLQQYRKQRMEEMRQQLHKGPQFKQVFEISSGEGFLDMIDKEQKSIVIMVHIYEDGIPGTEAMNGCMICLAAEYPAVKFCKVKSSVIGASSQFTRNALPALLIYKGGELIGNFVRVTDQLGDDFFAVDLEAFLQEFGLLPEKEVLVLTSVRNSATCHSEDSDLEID
# The other results are listed elsewhere or left out. The data scatter; read single values as rough.
# Target: T1, PDCL C35 (UniProt Q13371)
# T1 sequence (whole entry): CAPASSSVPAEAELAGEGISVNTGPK
# Assay: log2 mean competition ratio of IA-DTB cysteine labelling (DMSO/compound) (log2 ratio); higher = stronger cysteine engagement by compound
# Settings: 50 µM; treatment time: 4 h; cell line lysate: HEK293T
# Method: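 IA-DTB competitive cysteine chemoproteomics in HEK293T RIPA lysate. Lysates were treated with compound 29 or 30 at 50 or 200 µM for 4 h, then IA-DTB (500 µM, 1 h), trypsin-digested, NeutrAvidin-enriched and analysed by diaPASEF. Competition ratio = intensity DMSO / intensity compound (n=4 treated, n=64 DMSO); binding: mean log2 CR ≥ 1 and p ≤ 0.05 plus QC filters. Target is the cysteine site.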
row,Compound,log2 mean competition ratio
1,O=C(CCl)N[C@H]1CCCc2ccccc21,-0.412
2,O=C(CCl)N[C@@H]1CCCc2ccccc21,-0.071

# Same assay, conditions: 200 µM; treatment time: 4 h; cell line lysate: HEK293T
row,Compound,log2 mean competition ratio
1,O=C(CCl)N[C@H]1CCCc2ccccc21,-0.127
2,O=C(CCl)N[C@@H]1CCCc2ccccc21,-0.122
